Reference: PubChem BioAssay AID1259276 (Sanger Institute, 2017)

Aim: 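Kinome-wide search for kinases colon cancer cells need, and for drug partners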 (primary screen)
Cell system: human C2BBe1 colorectal cancer cells
Reagents: siRNA pool against human genes
Treatment: DMSO vehicle, or one anchor drug: BYL719 at 1 µM, cetuximab at 5 µg/ml, or trametinib at 10 nM; exposure length not stated
Read-out: 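Viability after knock-down relative to non-targeting siRNA controls, averaged across replicates, given as ratio and control-derived robust z-score, with per-drug synergy scores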
Reading the numbers: viability robust z-score, siRNA alone and viability vs control, siRNA alone: higher = more viable cells after knock-down
Rule for the call: 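Called essential when knock-down alone gives a viability robust z-score below -3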
Meaning of the calls: active = essential (siRNA alone); inactive = no change (siRNA alone)
The whole screen tested 794 reagents; below is a random part of them. Of all reagents, 24 (3%) got an active call. 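Calls come only from the siRNA-alone arm; drug synergy scores do not affect them.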 A number with no mark means an inactive call. Viability is capped at 1. Further read-outs or replicates are left out here. Reagent sequences are not shown. The record does not give: the amount of reagent, the time to read-out.

Target gene | viability robust z-score, siRNA alone | viability vs control, siRNA alone
SRP72 (signal recognition particle 72) | 0.472 | 1
BRDT (bromodomain testis associated) | 0.472 | 1
CMPK1 (cytidine/uridine monophosphate kinase 1) | 0.472 | 1
ROCK2 (Rho associated coiled-coil containing protein kinase 2) | 0.263 | 0.987
PKM (pyruvate kinase M1/2) | 0.472 | 1
IRAK4 (interleukin 1 receptor associated kinase 4) | 0.472 | 1
TCF12 (transcription factor 12) | 0.472 | 1
PRKAR2A | 0.442 | 0.998
CAMK2D (calcium/calmodulin dependent protein kinase II delta) | 0.472 | 1
PPP2R1A (protein phosphatase 2 scaffold subunit Aalpha) | 0.472 | 1
MERTK (MER proto-oncogene, tyrosine kinase) | -0.292 | 0.952
FXR1 (FMR1 autosomal homolog 1) | -1.66 | 0.866
PAPSS2 (3'-phosphoadenosine 5'-phosphosulfate synthase 2) | -1.58 | 0.871
MGA (MAX dimerization protein MGA) | -0.586 | 0.933
NUAK2 (NUAK family kinase 2) | 0.472 | 1
MAP4K4 (mitogen-activated protein kinase kinase kinase kinase 4) | 0.472 | 1
PIP4K2A (phosphatidylinositol-5-phosphate 4-kinase type 2 alpha) | 0.472 | 1
PKLR (pyruvate kinase L/R) | 0.472 | 1
PRKD3 (protein kinase D3) | 0.472 | 1
DYRK2 (dual specificity tyrosine phosphorylation regulated kinase 2) | -1.25 | 0.892
MAK (male germ cell associated kinase) | 0.472 | 1
CDK9 (cyclin dependent kinase 9) | 0.472 | 1
MAGI2 | -0.149 | 0.961
SPEG (striated muscle enriched protein kinase) | -1.04 | 0.905
RPS6KB1 (ribosomal protein S6 kinase B1) | 0.472 | 1
GSK3A (glycogen synthase kinase 3 alpha) | -1.56 | 0.872

Entries listed so far whose gene name starts with M or m:
Target gene | viability robust z-score, siRNA alone | viability vs control, siRNA alone
MERTK (MER proto-oncogene, tyrosine kinase) | -0.292 | 0.952
MGA (MAX dimerization protein MGA) | -0.586 | 0.933
MAP4K4 (mitogen-activated protein kinase kinase kinase kinase 4) | 0.472 | 1
MAK (male germ cell associated kinase) | 0.472 | 1
MAGI2 | -0.149 | 0.961

Continued:
Target gene | viability robust z-score, siRNA alone | viability vs control, siRNA alone
IKBKE (inhibitor of nuclear factor kappa B kinase subunit epsilon) | 0.472 | 1
MVK (mevalonate kinase) | 0.472 | 1
TAF1 (TATA-box binding protein associated factor 1) | -0.205 | 0.957
STK25 (serine/threonine kinase 25) | 0.472 | 1
SNRK (SNF related kinase) | 0.472 | 1
FN3KRP (fructosamine 3 kinase related protein) | 0.472 | 1
MLKL (mixed lineage kinase domain like pseudokinase) | 0.472 | 1
ETNK2 (ethanolamine kinase 2) | 0.472 | 1
IP6K2 (inositol hexakisphosphate kinase 2) | 0.472 | 1
ABL1 (ABL proto-oncogene 1, non-receptor tyrosine kinase) | 0.472 | 1
CDK11A (cyclin dependent kinase 11A) | 0.472 | 1
CDC42BPA (CDC42 binding protein kinase alpha) | -1.93 | 0.848
ACO1 (aconitase 1) | 0.127 | 0.978
MAP3K5 (mitogen-activated protein kinase kinase kinase 5) | 0.472 | 1
NEK8 (NIMA related kinase 8) | 0.472 | 1
PGK2 (phosphoglycerate kinase 2) | 0.472 | 1
ULK1 (unc-51 like autophagy activating kinase 1) | 0.472 | 1
ATR (ATR checkpoint kinase) | 0.472 | 1
KHK (ketohexokinase) | 0.472 | 1
CLSPN (claspin) | -4.75 (active) | 0.671
CAMKK2 (calcium/calmodulin dependent protein kinase kinase 2) | 0.472 | 1
FGFR4 (fibroblast growth factor receptor 4) | 0.136 | 0.979
DDR2 (discoidin domain receptor tyrosine kinase 2) | -1.72 | 0.862
TESK2 (testis associated actin remodelling kinase 2) | 0.472 | 1
